Measured values taken from US4444780A, “Method for treating atopic dermatitis” (priority 1982, dated 1984).

Legend:
[1] = tested on: K^+ -Stimulated Ca^++ -mediated Contractions of Rabbit Aortic Strips; test: Potassium-Induced Calcium-Mediated Contraction of Aortic Strips; format: cell-based, New Zealand strain rabbits; conditions: Oryctolagus cuniculus, read-out: IC50, K+-stimulated Ca++-mediated contractions
Excerpt: New Zealand strain rabbits (1-1.5 kg) were sacrificed by cervical dislocation and the thoracic cavity was opened to expose a section of the aorta. A section of the aorta from the diaphragm to the aortic arch was isolated, dissected out and immediately placed in chilled Krebs bicarbonate buffer solution. A 2 inch section of the aorta was supported on a glass rod in a petri dish with chilled Krebs bicarbonate solution and cleaned of excess tissue. The aorta was then cut into helical strips (3×30 mm) and suspended from a FT03 isometric force displacement transducer coupled to a Beckman recorder. The tissue bath was filled with Krebs bicarbonate buffer maintained at 37° C. and bubbled with 95% 02 and 5% CO2. The helical strips were allowed to equilibrate for 1.5 to 2 hours with a 4 gram resting load. The tissues were dosed in a cumulative manner with 10 mM, 15 mM, 20 mM, 30 mM, 40 mM, 80 mM and 120 mM KCl. The tissues were washed several times after the KCl treatment and were allowed to equilibrate for 1-1.5 hours until a baseline equivalent to 4 grams tension was achieved. A second dose-response to KCl was repeated and again washed and allowed to equilibrate. […] Changes in grams tension were recorded.

[2] = tested on: passive cutaneous anaphylaxis reaction; test: Passive Cutaneous Anaphylaxis Test (PCA), topical antiallergic activity; format: in vivo, Male Sprague Dawley rats
Excerpt: Male Sprague Dawley rats (175-200 grams) were sensitized intradermally with 0.1 cc of high dilution of antiovalbumin antiserum (IgE-containing) that was predetermined to cause a well circumscribed and reproducible skin wheal response. Two intradermal sensitization sites were applied to the backs of each rat. […] One hour later the rats were challenged intravenously with a solution containing 0.5% ovalbumin and 0.5% Evans blue dye in a saline vehicle. Twenty minutes later the rats were killed by carbon dioxide asphyxiation, the dorsal skin reflected and the blue wheal measured as the mean of the two largest perpendiculars. This mean was used to calculate the area of the wheal according to [A=π(d/2)^2 ]. The wheal area under the drug-treated site was used as an index of local topical activity and the distant site served as an index of systemic activity.

SMILES	IC50 [1]	inhibition in vivo at 0.02 % ([2]; Rattus norvegicus, Topical Dose 0.02%, read-out: Percent Inhibition)	inhibition in vivo at 0.2 % ([2]; Rattus norvegicus, Topical Dose 0.20%, read-out: Percent Inhibition)	inhibition in vivo at 2 % ([2]; Rattus norvegicus, Topical Dose 2.00%, read-out: Percent Inhibition)	Significance (P < .05) of inhibition ([2]; Topical Dose 0.02%)	Significance (P < .05) of inhibition ([2]; Topical Dose 0.20%)	Significance (P < .05) of inhibition ([2]; Topical Dose 2.00%)	activity in the PCA test (in words) ([2]; topical)
CN1CCC(=C2c3ccccc3C=Cc3ccccc32)CC1 [Cyproheptadine, cyproheptadine]	3 µM							
CN(C)CCN(Cc1cccs1)c1ccccn1 [Methapyrilene, methapyrilene]		8.9%	8.8%	37.4%	No	No	No	inactive
